The text below walks through data of article PMC3701669.

Sequences of proteins named here, by UniProt entry; tags and fusion partners are left off. A change or cut given only in a name is not applied to a line headed by its entry. A line that says so, or that is headed by a name, gives the form on record, which may keep a tag or linker.
UniProt O35381: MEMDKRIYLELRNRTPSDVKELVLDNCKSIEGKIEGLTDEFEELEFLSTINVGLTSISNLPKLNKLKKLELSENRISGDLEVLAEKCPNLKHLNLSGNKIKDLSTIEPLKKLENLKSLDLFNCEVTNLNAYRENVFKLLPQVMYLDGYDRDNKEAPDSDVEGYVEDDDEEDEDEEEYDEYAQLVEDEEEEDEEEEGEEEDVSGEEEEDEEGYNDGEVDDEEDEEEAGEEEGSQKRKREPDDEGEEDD
template-activating factor-1β (TAF-1β), endogenous mouse (Q9EQU5-2, form named): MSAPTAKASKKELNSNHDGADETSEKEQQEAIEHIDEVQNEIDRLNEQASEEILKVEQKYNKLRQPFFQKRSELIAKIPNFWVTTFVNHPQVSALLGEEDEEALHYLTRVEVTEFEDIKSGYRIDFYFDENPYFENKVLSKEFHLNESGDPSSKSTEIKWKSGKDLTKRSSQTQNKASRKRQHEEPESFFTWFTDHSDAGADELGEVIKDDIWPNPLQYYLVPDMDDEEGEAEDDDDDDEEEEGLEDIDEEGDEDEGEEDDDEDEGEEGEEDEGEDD

Results are given in words; binding and its absence hold for the method and conditions named. Binding seen in cells or lysates may run through a third protein. Here binding means that the protein was enriched with, or labelled near, the bait; the list need not be complete. Sequences can lack the tags named with a protein.

For the assay, the target named is T1, GST-human LHX3a C-terminus (residues 225–397) fusion protein (human) (UniProt Q9UBR4).
T1 sequence: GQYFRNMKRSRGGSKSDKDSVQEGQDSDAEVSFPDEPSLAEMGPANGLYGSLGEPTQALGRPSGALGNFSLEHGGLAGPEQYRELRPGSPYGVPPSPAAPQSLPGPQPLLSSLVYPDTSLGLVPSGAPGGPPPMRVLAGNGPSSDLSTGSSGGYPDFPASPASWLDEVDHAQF
The assay is described as follows: affinity purification with mass spectrometry; GST-LHX3 C-terminus on glutathione beads; 500 µg LβT2 or mouse pituitary extract precleared with GST beads (4°C, 2 h); 20 mM HEPES pH 7.9, 100 mM NaCl, 1 mM EDTA, 10% glycerol, 0.5% NP-40, 1 mM DTT, 50 µg/mL ethidium bromide; elution with 800 mM NaCl; SDS-PAGE, colloidal Coomassie, bands unique against GST alone identified by mass spectrometry; only the target purified.

In the case of “leucine rich acidic nuclear protein (LANP), endogenous mouse (from UniProt O35381 1-247)”, the binding result is listed as “binds”. For the substance “template-activating factor-1β (TAF-1β), endogenous mouse (from UniProt Q9EQU5-2 1-277)”, the binding result is on record as “binds”.
